# Test results taken from PubChem BioAssay AID493014 (National Center for Advancing Translational Sciences (NCATS), 2011).
# Among all 340,000 compounds or so, about 170 (0.05%) were called active. This list was built around the results that the source calls inconclusive (neither active nor inactive); the mix of calls is not that of the screen. Calls come from the whole dose curve; as a rule, active = well fitted inhibition curve with a large enough effect in the signal ratio, with a control signal flat (not every such curve was filed as active); inconclusive = small, poorly fitted or top-dose-only effect, or effect the other way, or a change in a side signal; inactive = flat fitted curve, though single readings scatter; the % refers to the signal ratio. A potency beside an inconclusive call is a rough fit, not a confirmed value.
# Assay: qHTS Assay to Find Inhibitors of Chronic Active B-Cell Receptor Signaling;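 for activity change, negative = inhibition: plate controls were basal doxycycline-induced cells for no effect and cells given 10 µM MG132 for full effect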
# Details: ABC-DLBCL IkBa-CBG/CBR reporter, luminescence ratio (green luciferase fused to IkBa over red control in TMD8 lymphoma cells), 4 h; activity change, negative = inhibition: at 46.1 µM (top of the series) unless noted
# How it was run: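 Doxycycline induced both beetle luciferases in TMD8 lymphoma cells; IKK-driven degradation limits the IkappaBalpha-fused green signal, while red luminescence normalises for cell number and nonspecific effects. Compounds tested up to 46 uM, 4 hrs.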
# Potency is the fitted concentration of half-maximal effect.
SMILES,"activity change, negative = inhibition",Potency
COc1ccc(C(=O)Nc2oc(-c3ccccc3)c(-c3ccccc3)c2C#N)cc1OC,inconclusive: 6.33%,
O=C(CNC(=O)c1cccs1)N/N=C/c1c(F)cccc1Cl,inconclusive: -24.3%,
Cn1cc([N+](=O)[O-])c(C(=O)Nc2ccc3c(c2)OCCO3)n1,,"inconclusive: 11.2 µM [falling, single point]"
CCCNS(=O)(=O)c1cc(Cl)ccc1OC,,"inconclusive: 0.708 µM [falling, partial curve, poor fit]"
Cc1ccc(C(=O)CSc2nc3ccccc3c(=O)[nH]2)cc1,inconclusive: 10.3%,
Cc1cc(=O)[nH]c(SCC(=O)Nc2nc3ccccc3s2)n1,,"inconclusive: 35.5 µM [falling, single point]"
Cc1cccc(/C=C/c2onc(C)c2S(=O)(=O)N2CCC(C(=O)NC(C)C)CC2)c1,inactive: 0.335%,
CC(=O)N1c2ccc(S(=O)(=O)N3CCC(C(=O)N4CCN(c5ccc(Cl)cc5)CC4)CC3)cc2CC1C (centres undefined),inconclusive: 1.15%,
O=C1N=C(N2CCOCC2)S/C1=C\c1ccc(OS(=O)(=O)c2ccccc2)cc1,,"inconclusive: 14.1 µM [falling, partial curve, poor fit]"
NC(=O)C1CCN(c2nc(-c3ccc4c(c3)OCCO4)cs2)CC1,,"inconclusive: 32.6 µM [falling, single point]"
CCOc1ccccc1/C=N/NC(=O)CNC(=O)c1cccs1,,"inconclusive: 3.16 µM [falling, partial curve, poor fit]"
O=C(Nc1cccc(C(F)(F)F)c1)C1CCN(S(=O)(=O)c2cnc[nH]2)CC1,inactive: 7.75%,
COc1ccc(OCC(O)CN2CCN(c3ccccc3)CC2)cc1 (centres undefined),inconclusive: -16.9%,
OC(CCN1CCCCC1)(c1ccccc1)c1ccccc1,inconclusive: -24.4%,
OC(CNC1CCCCC1)COCCOc1ccc(Br)cc1 (centres undefined),inconclusive: -1.23%,
COc1ccc(N(CC(=O)Nc2ccc(OC)cc2OC)S(=O)(=O)c2ccccc2)cc1,inconclusive: -1.24%,
CCCCNC(=O)CSc1nc2n[nH]c(C)c2c(=N)n1-c1ccccc1CC,,"inconclusive: 4.47 µM [falling, partial curve, poor fit]"
Cc1cc(C(F)(F)F)n2ncc(C(=O)O)c2n1,inactive: -6.37%,
CC(=O)c1cccc(Nc2nc3ccccc3n3cnnc23)c1,,"inconclusive: 31.6 µM [rising, single point]"
CCNc1nc(NCC)nc(N/N=C(\C)c2ccc(OC)cc2)n1,inconclusive: -17.2%,
COc1ccc(NS(=O)(=O)c2cccc(C(=O)NN=Cc3ccc(OC)cc3OC)c2)cc1,inconclusive: -3.01%,
COC(=O)c1ccccc1NC(=O)Nc1cccc(C)n1,inactive: 2.73%,
O=C(/C=C\Nc1cccc(F)c1)c1cccs1,,"inconclusive: 29.1 µM [rising, single point]"
CC(=O)N(NC(=O)c1ccccc1Cl)C1CC(=O)N(c2ccc(C)cc2)C1=O (centres undefined),inactive: 8.85%,
COc1cc(OC)c(N(C)S(=O)(=O)c2cccc(C(=O)Nc3nc(C)cs3)c2)cc1Cl,inconclusive: 0.347%,

SMILES,"activity change, negative = inhibition",Potency
CS(=O)(=O)N1CC(C(=O)NC2CC2)Oc2ccc(Cl)cc21 (centres undefined),inactive: -3.98%,
Cc1ccc(NC(=O)COc2ccc(Br)cc2CO)cc1S(=O)(=O)N1CCOCC1,inconclusive: -10.3%,
N/C(=N\OCc1ccccc1)c1nonc1N,,"inconclusive: 35.5 µM [falling, single point]"
COc1ccc(-c2nn(-c3ccccc3)cc2/C=C(\CC(=O)O)c2nc3ccccc3s2)cc1OC,,"inconclusive: 22.4 µM [falling, single point]"
Cc1ccc(-n2c(C)c(C)c3c(N)ncnc32)cc1,,"inconclusive: 7.08 µM [falling, full curve, poor fit]"
FC(F)(F)c1cnc(COc2ccc(Cl)cc2Cl)c(Cl)c1,,"inconclusive: 35.5 µM [rising, partial curve, poor fit]"
CCCC(=O)NC(c1ccc(N(C)C)cc1)c1ccc2cccnc2c1O (centres undefined),inactive: -14.4%,
CC(=O)OCC(=O)c1ccc2ccn(C(C)=O)c2c1,inactive: 3.24%,
O=C(CN1CCSCC1)N1CCc2[nH]c3ccc(Br)cc3c2C1,inconclusive: -13.5%,
COc1ccc(CCN(Cc2cc3cccc(C)c3[nH]c2=O)C(=O)NC2CCCCC2)cc1OC,,"inconclusive: 23.1 µM [rising, partial curve, poor fit]"
COCCNC(=O)COC(=O)/C=C/c1c(C)nn(Cc2ccc(Cl)cc2Cl)c1Cl,inactive: 1.42%,
Cc1ccc(-n2c(C)cc(/C=N/NC(=O)c3ccncc3)c2C)c(C)c1,,"inconclusive: 35.5 µM [falling, partial curve, poor fit]"
CC(C)n1nc(C(=O)NNC(=O)c2ccncc2)c2ccccc2c1=O,,"inconclusive: 11.6 µM [falling, partial curve]"
Cc1oc(-c2ccc3ccccc3c2)nc1CN(C)C(C)c1ccncn1 (centres undefined),inconclusive: 7.25%,
COc1ccccc1NC(=O)Nc1ccccc1N1CCOCC1,inactive: 0.0873%,
Cc1ccnc(NC(=O)c2ccc(OCc3c(C)noc3C)cc2)c1,inconclusive: 9.73%,
CC(=O)c1ccccc1NC(=O)c1ccc(N2CCCC2=O)cc1,,"inconclusive: 2.31 µM [falling, full curve]"
CCC1CN(C(=O)NCc2ccc(F)cc2)c2ccccc2O1 (centres undefined),inactive: 2.85%,
Cc1ccc(C(=O)NC(=C(Cl)Cl)S(=O)(=O)c2ccc(Cl)cc2)cc1,inconclusive: -4.19%,
Cc1ccc(N2CCN(CC(O)COc3ccccc3)CC2)cc1 (centres undefined),inconclusive: -1.47%,
CCn1c(=O)cc(SCC(=O)Nc2ccc(C)cn2)c2ccccc21,,"inconclusive: 35.5 µM [falling, single point]"
O=C(N/N=C/c1cccnc1)c1ccccc1OCc1ccc(Cl)cc1,,"inconclusive: 7.94 µM [falling, partial curve]"
CCNC(=O)COc1ccc(Br)cc1Cl,inconclusive: 6.57%,
COc1cccc(C(=O)N/N=c2/oc3ccccc3cc2C(N)=O)c1,inconclusive: 1.06%,
CC(C)Cn1c(CN2CCN(C(=O)c3ccco3)CC2)nc2c1c(=O)n(C)c(=O)n2C,inconclusive: 1.11%,

# Reformatted: 6 of the compounds above.
SMILES | activity change, negative = inhibition | Potency
N/C(=N\OCc1ccccc1)c1nonc1N |  | inconclusive: 35.5 µM [falling, single point]
COc1ccc(-c2nn(-c3ccccc3)cc2/C=C(\CC(=O)O)c2nc3ccccc3s2)cc1OC |  | inconclusive: 22.4 µM [falling, single point]
CC(=O)OCC(=O)c1ccc2ccn(C(C)=O)c2c1 | inactive: 3.24% | 
Cc1ccnc(NC(=O)c2ccc(OCc3c(C)noc3C)cc2)c1 | inconclusive: 9.73% | 
COc1cccc(C(=O)N/N=c2/oc3ccccc3cc2C(N)=O)c1 | inconclusive: 1.06% | 
CC(C)Cn1c(CN2CCN(C(=O)c3ccco3)CC2)nc2c1c(=O)n(C)c(=O)n2C | inconclusive: 1.11% | 

# The list goes on:

SMILES,"activity change, negative = inhibition",Potency
O=C(NCCN1C(=O)S/C(=C\c2ccccc2)C1=O)C1CCN(S(=O)(=O)c2cccs2)CC1,inconclusive: 1.97%,
Cc1onc(-c2ccccc2Cl)c1C(=O)N1CCCc2ccccc21,inactive: 0.947%,
O=C(Cc1ccc(Br)cc1)N1CCN(C(=O)c2ccco2)CC1,inactive: 1.44%,
Cc1nn2c(N3CCN(CCO)CC3)c3c(nc2c1-c1ccccc1)CCCC3,inactive: -3.84%,
Cc1ccc(C)c(C(=O)C(C)Sc2nc3nn(-c4ccccc4)c(=O)c-3c3n2CCCCC3)c1 (centres undefined),inconclusive: -2.56%,
c1cc2c(cc1NC1CCCCCC1)OCO2,inconclusive: -10.7%,
COc1ccc(N2CC(NS(=O)(=O)c3ccc(F)cc3)CC2=O)cc1 (centres undefined),inactive: -2.03%,
COc1ccc(C(C(=O)NCC2CCCO2)N(C(=O)CNC(=O)c2ccco2)c2ccccc2)cc1OC (centres undefined),inconclusive: 16.9%,
COc1ccc(C)cc1NC(=O)N1CCCc2ccccc21,inconclusive: 5.87%,
COc1cccc2c1Oc1cc([N+](=O)[O-])cc(N(C)C(C)=O)c1C=C2,inconclusive: -1.17%,
N#CC1=C(N)C(C#N)(C#N)[C@H](c2ccoc2)[C@H]2CN(Cc3ccccc3)CC=C12,inactive: -1.99%,
CSc1cccc(NC(=O)CN2C(=O)c3ccccc3S2(=O)=O)c1,inactive: 4.02%,
Nc1nnn(CC(=O)N/N=C/C=C/c2ccccc2)n1,inconclusive: 10.6%,
Cc1ccc(C2=NN(CC(=O)O)C(=O)CC2)cc1,inactive: 1.97%,
CN(C(=S)Nc1ccccc1)c1ccccc1,inactive: 2.4%,
O=C(Nc1cccc(F)c1)C1CCCN1C(=O)OCc1ccccc1 (centres undefined),inactive: -2.07%,
O=C(Nc1ccc2c(c1)N(C1CCCC1)C(=O)c1ccccc1S2)c1ccccc1,inconclusive: -23.4%,
CN(C)CCCOC(=O)c1sc2ccccc2c1Cl,inactive: 19.2%,
Cc1nc(N2CCC(C)CC2)c(C#N)c(C)c1[N+](=O)[O-],inconclusive: 4.27%,
CN(Cc1nc2ccccc2c(=O)[nH]1)C(=O)c1ccc(NC(=O)CSc2nnnn2C)cc1,,"inconclusive: 5.8 µM [rising, partial curve, poor fit]"
COc1ccccc1N1CCN(C(=O)CSc2nc3ccccc3o2)CC1,,"inconclusive: 13 µM [falling, partial curve]"
C/C(=N\NC(N)=O)c1c(F)cccc1F,inactive: 6.95%,
Cc1ccc(NC(=S)NCC23C=CC(O2)C2C(=O)N(c4ccc(C)cc4)C(=O)C23)cc1 (centres undefined),inconclusive: -14.9%,
CCCCC(=O)NC(=S)Nc1cccc(C(=O)O)c1,inconclusive: -24%,
